According to patent US11766430B2, “Methods of using a phenoxypropylamine compound to treat pain” (Minerva Neurosciences, Inc., priority 2018, dated 2023):
Values joined by “and” are separate entries in the source; they are usually repeats but may differ in a detail not shown here. Equal values may be shown once. The source gives many values for each of these; only a part stands here.

System: carrageenan-induced mechanical hyperalgesia in rats
Test: Carrageenan-induced mechanical hyperalgesia, paw pressure test, time course to 240 min (Example 2)
Type: in vivo, male Sprague-Dawley rats
Conditions: 1 mg/kg i.p., hydrochloride
Method: In this model, inflammation is induced by intraplantar injection of carrageenan (2%) into the right hindpaw of the rat. Three hours later, reaction thresholds are measured using the paw pressure test. Pressure is gradually applied to both hind paws (inflamed and control) of the rat, and reaction thresholds are determined as the pressure (g) required to elicit paw withdrawal or vocalization. Morphine (3 mg/kg, s.c.) was used as a positive control.
The experiments in this study used fifty (50) male Sprague-Dawley rats (SPF status, Janvier, France), each weighing 204-260 grams. The rats were housed in a temperature (20-24° C.) and relative humidity (45%-65%) controlled room and acclimated to an artificial day/night cycle of 12 hours light (6.30 a.m. to 6.30 p.m.)/12 hours darkness. Rats had free access to sterilized tap water and were fed ad libitum with pelleted complete diet (reference A04, S.A.F.E.). Rats were housed 4 per cage (cages Type E) and were acclimated for a period of at least 5 days before any testing. Each rat was identified by tail markings. Based on the SPF status of the animal facilities, there is no reason to expect that contaminants were present in the food, water or bedding, at levels capable of interfering with the results of the tests.
Pain Test: Static mechanical hyperalgesia was assessed using the Paw Pressure test or Randall & Selitto test (Randall, L. O. and Selitto, J. J., A method for measurement of analgesic activity on inflamed tissue, Arch Int Pharmacodyn, 1957(111): 409-419). This test requires the application of an increasing pressure on the hind paws between a flat surface and a blunt pointer. This test is usually used with animals with one hind paw inflamed by an injection or injured by ligation, and one normal hind paw, to evaluate drugs for analgesic action. The apparatus exerts a steadily increasing force and reaction threshold is determined as the pressure (g) required to elicit paw withdrawal and/or vocalization. In the experiment, animals were gently handled by the experimenter and static mechanical hyperalgesia was assessed. Each reaction threshold measurement was done for both hind paws.
Five (5) experimental groups of 10 rats each were used. Each group was first injected with of 100 μL of a 2% carrageenan suspension in the plantar aspect of the right hindpaw. Three hours after carrageenan injection, paw withdrawal threshold was measured using the paw pressure test (Baseline). The 5 groups were then administered the following: • Group 1: vehicle (0.5% HPMC), i.p., solution (negative control); • Group 2: MIN-117 (0.01 mg/kg, i.p.) in 0.5% HPMC, suspension; • Group 3: MIN-117 (0.1 mg/kg, i.p.) in 0.5% HPMC, suspension; • Group 4: MIN-117 (1 mg/kg, i.p.) in 0.5% HPMC, suspension; and • Group 5: morphine (3 mg/kg, s.c.) in 0.9% NaCl, solution (positive control).
After administering vehicle, MIN-117, or morphine, the antihyperalgesic effect of the compounds was evaluated using the paw pressure test at 0 min. (T0), 30 min., 60 min., 120 min., and 240 min.
Vehicle and MIN-117 were administered intraperitoneally at 10 mL/kg. Morphine was subcutaneously administered at 5 mL/kg. Dosing and testing were performed in a random order by a blinded experimenter except for the morphine-treated group. Doses were expressed in terms of free active substance. Rats were sacrificed at the end of the experiment by CO2 inhalation pending subsequent removal by a certified company.
Results were assessed as: the paw withdrawal threshold (mean±s.e.m.) in grams of contact pressure for each group, calculated from individual paw withdrawal thresholds; the percentage of variation of the paw withdrawal threshold calculated from the mean value of the vehicle-treated group; and/or the percentage of activity. To determine a statistical effect of the test substance and the reference substance, data were analyzed by a non-parametrical test. The significance level was p<0.05.

Structure (SMILES): Cc1nnc(-c2cc3c(OC[C@@H](O)CN4CCC(c5ccc(Cl)c(Cl)c5)CC4)cccc3o2)o1.Cl [MIN-117, (2S)-1-(4-(3,4-dichlorophenyl)piperidin-1-yl)-3-((2-(5-methyl-1,3,4-oxadiazol-2-yl)benzofuran-4-yl)oxy)propan-2-ol hydrochloride]
- Nociceptive threshold, control paw, individual rats (30 min): 320 g (4×) and 300 g and 360 g (2×) and 400 g and 440 g and 420 g
- Nociceptive threshold, injured paw, individual rats (30 min): 160 g (2×) and 180 g (4×) and 140 g and 220 g and 200 g (2×)
- Nociceptive threshold, control paw, individual rats (60 min): 360 g (4×) and 320 g (2×) and 380 g and 400 g and 520 g and 480 g
- Nociceptive threshold, injured paw, individual rats (60 min): 180 g (2×) and 220 g (3×) and 140 g and 200 g and 240 g (2×) and 280 g
- Nociceptive threshold, control paw, individual rats (120 min): 420 g (2×) and 360 g (2×) and 400 g (2×) and 320 g and 340 g and 440 g and 460 g
- Nociceptive threshold, injured paw, individual rats (120 min): 240 g (2×) and 200 g (2×) and 220 g (3×) and 260 g (3×)
- Nociceptive threshold, control paw, individual rats (240 min): 360 g (3×) and 320 g and 280 g and 420 g (2×) and 340 g and 440 g and 400 g
- Nociceptive threshold, injured paw, individual rats (240 min): 180 g (6×) and 200 g and 160 g and 220 g (2×)
- Nociceptive threshold, control paw, individual rats (Baseline): 340 g (2×) and 360 g (3×) and 420 g (2×) and 440 g and 380 g and 320 g
- Nociceptive threshold, injured paw, individual rats (Baseline): 220 g (3×) and 160 g (2×) and 140 g and 200 g (2×) and 180 g (2×)
